These results are taken from patent US20240287205A1.

The target in assay [1] is T1, human acid sphingomyelinase (ASM) protein (human) (UniProt P17405).
T1 sequence: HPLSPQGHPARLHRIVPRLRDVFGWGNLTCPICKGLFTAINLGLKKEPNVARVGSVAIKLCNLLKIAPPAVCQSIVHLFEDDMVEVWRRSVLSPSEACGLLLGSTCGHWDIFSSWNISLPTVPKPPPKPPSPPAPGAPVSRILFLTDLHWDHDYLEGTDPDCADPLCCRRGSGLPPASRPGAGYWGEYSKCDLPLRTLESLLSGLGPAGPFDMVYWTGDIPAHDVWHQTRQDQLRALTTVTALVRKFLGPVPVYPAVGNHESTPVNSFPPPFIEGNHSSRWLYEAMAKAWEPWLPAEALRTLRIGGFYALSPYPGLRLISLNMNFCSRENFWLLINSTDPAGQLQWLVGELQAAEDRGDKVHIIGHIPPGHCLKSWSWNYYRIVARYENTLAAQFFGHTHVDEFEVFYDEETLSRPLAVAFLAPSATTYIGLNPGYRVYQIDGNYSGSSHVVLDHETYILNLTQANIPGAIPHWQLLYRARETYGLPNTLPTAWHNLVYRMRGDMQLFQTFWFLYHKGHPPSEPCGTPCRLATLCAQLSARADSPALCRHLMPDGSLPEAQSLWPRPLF
The assay is described as follows: ELISA on plate-coated recombinant human ASM, goat anti-mouse IgG-HRP, O.D 450 nm.

The target of assay [2] is T1, human acid sphingomyelinase (ASM) protein (human). The assay is described as follows: ELISA, plate coated with recombinant human ASM. For orientation: In an ELISA, binding on a coated surface is turned into a signal by an enzyme label.
Assay [3] has the same target. Kind of assay: BLI (Octet QK384), human ASM immobilised on AR2G sensor.
Assay [4] concerns the target T2, mouse acid sphingomyelinase (ASM) protein (mouse) (UniProt Q04519).
T2 sequence: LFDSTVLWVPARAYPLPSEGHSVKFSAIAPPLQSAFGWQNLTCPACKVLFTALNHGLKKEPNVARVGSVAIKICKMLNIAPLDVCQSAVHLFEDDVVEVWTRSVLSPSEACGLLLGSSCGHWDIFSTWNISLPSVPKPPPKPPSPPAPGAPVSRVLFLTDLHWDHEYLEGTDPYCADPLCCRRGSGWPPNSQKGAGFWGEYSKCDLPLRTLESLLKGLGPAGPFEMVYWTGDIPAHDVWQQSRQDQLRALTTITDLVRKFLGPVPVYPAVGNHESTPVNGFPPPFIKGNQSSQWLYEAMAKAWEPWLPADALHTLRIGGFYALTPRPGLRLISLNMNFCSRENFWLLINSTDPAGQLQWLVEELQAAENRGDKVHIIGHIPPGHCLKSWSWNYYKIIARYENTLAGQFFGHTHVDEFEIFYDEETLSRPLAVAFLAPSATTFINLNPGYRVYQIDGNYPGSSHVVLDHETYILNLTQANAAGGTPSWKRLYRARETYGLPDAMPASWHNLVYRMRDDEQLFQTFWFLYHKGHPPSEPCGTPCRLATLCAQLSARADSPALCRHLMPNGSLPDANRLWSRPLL
Kind of assay: BLI (Octet QK384), mouse ASM immobilised on AR2G sensor. (In general: BLI is a label-free optical method that tracks binding on a fibre tip over time.)

Results are given in words; binding and its absence hold for the method and conditions named. Some results given as binding are weak or reduced against the parent protein; the word gives no strength.

B1: antibody #9101 (antibody, mouse IgG1, V domains shown)
VH: EVQLLESGGGLVQPGGSLRLSCAASGFTFSNYAMSWVRQAPGKGLEWVSGIYPNGGNKYYADSVKGRFTISRDNSKNTLYLQMNSLRAEDTAVYYCAKNAYRFDYWGQGTLVTVSS
VL: QSVLTQPPSASGTPGQRVTISCSGSSSNIGNNYVSWYQQLPGTAPKLLIYADSKRPSGVPDRFSGSKSGTSASLAIGGLRSEDEADYYCGSWDYSLNAYVFGGGTKLTVLG
On to B1, for which the binding result in assay [1], in assay [2] and in assay [3] was “binds” throughout.

B2: antibody #9113 (antibody, mouse IgG1, V domains shown)
VH: EVQLLESGGGLVQPGGSLRLSCAASGFTFSSYYMSWVRQAPGKGLEWVSSISPGGSSIYYADSVKGRFTISRDNSKNTLYLQMNSLRAEDTAVYYCAKGASLFDYWGQGTLVTVSS
VL: QSVLTQPPSASGTPGQRVTISCSGSSSNIGNNAVSWYQQLPGTAPKLLIYSDNKRPSGVPDRFSGSKSGTSASLAISGLRSEDEADYYCGTWDASLNAYVFGGGTKLTVLG
Regarding B2, the binding result in assay [3] is recorded as “binds”.

B3: antibody #9108 (antibody, mouse IgG1, V domains shown)
VH: EVQLLESGGGLVQPGGSLRLSCAASGFTFSNYAMSWVRQAPGKGLEWVSAIYPGGGSIYYADSVKGRFTISRDNSKNTLYLQMNSLRAEDTAVYYCARDVLGLTPKPFDYWGQGTLVTVSS
VL: QSVLTQPPSASGTPGQRVTLSCTGSSSNIGSNTVYWYQQLPGTAPKLLIYANSQRPSGVPDRFSGSKSGTSASLAISGLRSEDEADYYCGSWDYSLSGYVFGGGTKLTVLG
For the molecule B3, the binding result in assay [1], in assay [2] and in assay [3] was “binds” in each case.

B4: antibody #9104 (antibody, mouse IgG1, V domains shown)
VH: EVQLLESGGGLVQPGGSLRLSCAASGFTFSNYYMSWVRQAPGKGLEWVSGIYYGSGNIYYADSVKGRFTISRDNSKNTLYLQMNSLRAEDTAVYYCARDTPGFDYWGQGTLVTVSS
VL: QSVLTQPPSASGTPGQRVTISCTGSSSNIGNNAVNWYQQLPGTAPKLLIYYDSHRPSGVPDRFSGSKSGTSASLAISGLRSEDEADYYCGAWDYSLSAYVFGGGTKLTVLG
On to B4, for which the binding result in assay [1], in assay [2], in assay [4] and in assay [3] was “binds” each time.
